According to publication PMC5996148:
Several values for one entry are separate records, joined by “and”; a condition that tells them apart may be missing. Equal values may be shown once. The list shows a part of the results. For some of these results: The source does not settle which construct or isoform was used.

Protein sequences, listed by entry. Tags and fused reporters are not part of them. Lines headed by an entry give the natural chain unless they say otherwise; changes in a name come on top.
UniProt P49796: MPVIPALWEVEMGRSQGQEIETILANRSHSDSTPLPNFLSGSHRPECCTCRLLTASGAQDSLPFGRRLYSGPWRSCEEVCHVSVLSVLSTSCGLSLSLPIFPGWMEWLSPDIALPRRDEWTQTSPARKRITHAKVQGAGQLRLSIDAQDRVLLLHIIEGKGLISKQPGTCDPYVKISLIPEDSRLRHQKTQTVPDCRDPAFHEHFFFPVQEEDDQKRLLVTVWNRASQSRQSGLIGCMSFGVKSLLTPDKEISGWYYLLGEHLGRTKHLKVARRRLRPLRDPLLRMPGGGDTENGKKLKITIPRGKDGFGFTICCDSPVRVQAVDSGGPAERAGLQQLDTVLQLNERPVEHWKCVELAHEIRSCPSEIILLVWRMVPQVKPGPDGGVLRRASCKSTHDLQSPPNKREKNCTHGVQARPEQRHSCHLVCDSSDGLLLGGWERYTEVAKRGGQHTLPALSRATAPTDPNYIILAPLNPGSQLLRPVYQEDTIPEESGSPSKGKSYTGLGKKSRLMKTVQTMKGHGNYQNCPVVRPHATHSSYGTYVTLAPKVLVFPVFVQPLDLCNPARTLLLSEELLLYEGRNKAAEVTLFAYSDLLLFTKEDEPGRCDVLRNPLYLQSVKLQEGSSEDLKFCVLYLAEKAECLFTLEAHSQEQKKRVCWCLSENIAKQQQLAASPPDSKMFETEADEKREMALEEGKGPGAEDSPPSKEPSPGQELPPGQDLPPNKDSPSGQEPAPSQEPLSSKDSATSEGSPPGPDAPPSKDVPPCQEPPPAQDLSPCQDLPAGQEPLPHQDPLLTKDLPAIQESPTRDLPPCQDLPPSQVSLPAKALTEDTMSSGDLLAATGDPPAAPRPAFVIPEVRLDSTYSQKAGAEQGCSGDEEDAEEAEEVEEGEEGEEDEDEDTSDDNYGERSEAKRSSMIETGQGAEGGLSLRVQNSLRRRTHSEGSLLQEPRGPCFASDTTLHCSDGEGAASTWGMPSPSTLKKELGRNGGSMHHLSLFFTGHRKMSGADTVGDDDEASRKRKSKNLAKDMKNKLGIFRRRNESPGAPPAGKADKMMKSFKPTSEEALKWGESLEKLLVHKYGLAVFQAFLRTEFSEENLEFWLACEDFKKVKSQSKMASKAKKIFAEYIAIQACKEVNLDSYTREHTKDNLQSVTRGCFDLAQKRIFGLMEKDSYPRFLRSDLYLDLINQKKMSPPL

Columns and labels:
Experiment in all cases: protein microarray (ProtoArray v5.0), streptavidin-Alexa Fluor 647
Conditions in all cases: 3'-biotin; 20 mM Tris (pH 7.5), 5 mM MgCl2, 100 mM KCl, 0.1% Tween-20, A/T-rich and random oligonucleotide blockers; temperature not stated; high values mean tight binding
REEP6 (human) = test system: REEP6 (human)
REG3A (human) = test system: REG3A (human)
RELA (human) = test system: RELA (human)
RELL2 (human) = test system: RELL2 (human)
RFC5 (human) = test system: RFC5 (human)
RFPL1 (human) = test system: RFPL1 (human)
RFPL3 (human) = test system: RFPL3 (human)
RGS10 (human) = test system: RGS10 (human)
RGS3 = RGS3 (UniProt P49796)
RGS5 (human) = test system: RGS5 (human)

GGGAGGCTGAGGCAGG [G4-1 biotinylated (PQS2)]
binding signal (REEP6 (human)): -0.34 z-score | binding signal (REG3A (human)): -0.276 z-score | binding signal (RELA (human)): -0.308 z-score | binding signal (RELL2 (human)): -0.299 z-score | binding signal (RFC5 (human)): -0.324 z-score | binding signal (RFPL1 (human)): -0.319 z-score | binding signal (RFPL3 (human)): -0.331 z-score | binding signal (RGS10 (human)): -0.352 z-score and -0.34 z-score | binding signal (RGS3): 7.5 z-score | binding signal (RGS5 (human)): -0.313 z-score
